From paper PMC10746952
These are yes or no findings as the source states them, for the method shown. Binding seen in cells or lysates may run through a third protein. Some entries that bind do so weakly or less than the wild type. Sequences can lack the tags named with a protein.

Chains of the proteins cited; added tags and fusions are not shown.
UniProt Q8R4B8: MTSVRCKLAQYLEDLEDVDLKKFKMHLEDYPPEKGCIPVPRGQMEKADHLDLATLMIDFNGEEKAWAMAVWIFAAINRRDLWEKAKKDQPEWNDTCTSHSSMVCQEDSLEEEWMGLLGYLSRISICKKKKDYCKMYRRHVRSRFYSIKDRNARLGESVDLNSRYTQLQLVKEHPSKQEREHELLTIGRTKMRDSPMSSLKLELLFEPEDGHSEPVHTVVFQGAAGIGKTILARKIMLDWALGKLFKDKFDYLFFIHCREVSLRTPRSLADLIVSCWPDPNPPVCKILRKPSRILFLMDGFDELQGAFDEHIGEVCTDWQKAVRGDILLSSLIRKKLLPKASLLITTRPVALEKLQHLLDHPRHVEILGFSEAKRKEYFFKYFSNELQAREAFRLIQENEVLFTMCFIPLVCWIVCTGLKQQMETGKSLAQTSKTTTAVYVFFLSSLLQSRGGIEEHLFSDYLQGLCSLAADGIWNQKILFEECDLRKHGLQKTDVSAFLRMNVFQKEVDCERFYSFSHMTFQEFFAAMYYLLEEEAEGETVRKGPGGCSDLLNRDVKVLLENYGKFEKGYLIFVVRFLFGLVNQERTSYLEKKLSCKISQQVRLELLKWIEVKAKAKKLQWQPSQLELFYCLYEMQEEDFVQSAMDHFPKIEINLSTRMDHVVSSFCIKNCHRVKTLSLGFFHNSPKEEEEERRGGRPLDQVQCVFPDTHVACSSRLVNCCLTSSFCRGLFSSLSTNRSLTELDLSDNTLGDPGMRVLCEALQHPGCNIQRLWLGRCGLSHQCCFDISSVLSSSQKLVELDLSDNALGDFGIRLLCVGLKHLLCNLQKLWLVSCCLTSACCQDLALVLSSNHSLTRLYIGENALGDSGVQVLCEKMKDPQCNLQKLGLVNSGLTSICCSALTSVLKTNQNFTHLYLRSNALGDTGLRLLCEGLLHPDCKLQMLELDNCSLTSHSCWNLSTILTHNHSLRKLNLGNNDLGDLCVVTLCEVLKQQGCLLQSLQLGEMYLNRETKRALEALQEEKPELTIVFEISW

Molecular target: T1, Flag-tagged mouse elongator complex protein 2 (ELP2) (mouse) (UniProt Q91WG4)
T1 sequence: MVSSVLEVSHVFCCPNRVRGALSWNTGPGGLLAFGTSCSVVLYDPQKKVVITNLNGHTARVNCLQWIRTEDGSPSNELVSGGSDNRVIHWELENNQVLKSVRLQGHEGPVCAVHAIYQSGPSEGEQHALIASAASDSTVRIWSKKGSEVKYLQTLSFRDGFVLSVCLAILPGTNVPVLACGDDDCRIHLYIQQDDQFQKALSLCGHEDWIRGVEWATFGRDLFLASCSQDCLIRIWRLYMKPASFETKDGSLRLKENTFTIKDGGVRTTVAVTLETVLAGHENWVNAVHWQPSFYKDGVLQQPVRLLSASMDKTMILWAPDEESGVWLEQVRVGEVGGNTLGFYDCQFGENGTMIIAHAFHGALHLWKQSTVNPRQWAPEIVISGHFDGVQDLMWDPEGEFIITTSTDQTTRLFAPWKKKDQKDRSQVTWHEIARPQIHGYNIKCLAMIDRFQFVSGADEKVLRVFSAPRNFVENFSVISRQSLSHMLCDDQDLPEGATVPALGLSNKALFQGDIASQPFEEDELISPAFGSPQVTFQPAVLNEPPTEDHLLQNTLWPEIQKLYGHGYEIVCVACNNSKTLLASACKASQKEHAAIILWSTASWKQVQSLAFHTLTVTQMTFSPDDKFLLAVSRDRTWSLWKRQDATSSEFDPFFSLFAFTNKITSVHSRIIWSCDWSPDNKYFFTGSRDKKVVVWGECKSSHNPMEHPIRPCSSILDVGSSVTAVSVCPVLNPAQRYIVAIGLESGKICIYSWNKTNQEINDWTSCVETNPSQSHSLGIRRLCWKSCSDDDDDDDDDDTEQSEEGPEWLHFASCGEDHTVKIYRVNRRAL
Assay: co-IP; lysate (RIPA with protease and phosphatase inhibitors) of MC3T3-E1 cells with high ELP2 expression; IgG control or Flag antibodies with protein A/G PLUS-Agarose overnight at 4°C; five washes with TBST; blot

binding: binds
Substance: NOD-like receptor thermal protein domain associated protein 3 (NLRP3) (from UniProt Q8R4B8 1-1033)
